Among the targets are ORF7b (SARS-CoV-2) (UniProt P0DTD8); NSP9 (SARS-CoV-2) (UniProt P0DTD1); ORF3a (SARS-CoV-2) (UniProt P0DTC3); NSP6 (SARS-CoV-2) (UniProt P0DTD1).
Assay in all cases: FRET or BRET + co-IP
A general note: In BRET a luciferase serves as donor, and the signal depends on an acceptor being close.

For experiment [1], the target named is membrane glycoprotein M (SARS-CoV-2) (UniProt P0DTC5).

No constants are given. Whether binding was seen depends on the method and setting. In cells and extracts the contact can be indirect. Some binding calls cover weakened binding; strength is not graded here.

With NSP4 (from UniProt P0DTD1 2764-3263), the binding entry with ORF7b (SARS-CoV-2) is recorded as “binds”.
Take ORF3a (from UniProt P0DTC3 1-275): the binding result in the experiment with NSP9 (SARS-CoV-2) and in the experiment with ORF3a (SARS-CoV-2) was “binds” in each case.
Regarding “envelope protein E (from UniProt P0DTC4 1-75)”, the binding result (with NSP6 (SARS-CoV-2); in experiment [1]) was “binds” in each case.
Regarding “membrane glycoprotein M (from UniProt P0DTC5 1-222)”, the binding result with ORF3a (SARS-CoV-2) is reported as “binds”.

Values taken from paper PMC10987651.
